Source: patent US20060058504A1, “Peptides capable of inducing attraction to the axonal growth and their use for treating neurodegenerative diseases” (Centre National de la Recherche Scientific (CNRS), priority 2002, published 2006)
No constants are given. Whether binding was seen depends on the method and setting. Some entries that bind do so weakly or less than the wild type.

Columns and labels:
[1] = target: full-length wild-type human L1 expressed in COS7 cells (human) (UniProt P32004); assay: immunofluorescence on L1-expressing cells (FIG. 3)
[2] = target: full-length wild-type human L1 expressed in COS7 cells (human) (UniProt P32004); assay: immunodetection with anti-Fc antibodies on COS7 cells transfected with full-length wild-type L1
[3] = target: full-length wild-type human L1 expressed in COS7 cells (human) (UniProt P32004); assay: immunofluorescence on COS cells expressing wild-type L1 (FIG. 2A)
[4] = target: T1, wild-type L1Fc chimeric protein (human, UniProt P32004 20-1120); assay: two-color FACS bead aggregation (FIG. 2B)
T1 construct: Produced in COS-7 cells, purified on protein A-Sepharose; in the two-color assay it was held on anti-human IgG coated beads; also called soluble L1; wt; not shown: immunoglobulin Fc, human (cross-linked with anti-human Fc antibodies)

[5] = target: full-length wild-type human L1 expressed in COS7 cells (human) (UniProt P32004); assay: immunofluorescence on COS7 cells transfected with full-length wild-type L1
[6] = target: T1, wild-type L1Fc chimeric protein; assay: two-color FACS bead aggregation
[7] = target: T1, wild-type L1Fc chimeric protein; assay: two-color FACS bead aggregation, mutant to wild-type (FIG. 2B)

Row | Molecule | binding [3] | binding [4] | binding [5] | other results
1 | wild-type L1Fc chimeric protein (from UniProt P32004 20-1120) (Fc fusion) | – | – | – | binding [1]: binds; binding [2]: binds
2 | L120V mutant L1Fc chimera (from UniProt P32004 20-1120) (Fc fusion) | binds | – | – | –
3 | A426D mutant L1Fc chimera (Fc fusion, UniProt P32004 20-1120, looked up, not shown: immunoglobulin Fc, human) IQIPEEYEGHHVMEPPVITEQSPRRLVVFPTDDISLKCEASGKPEVQFRWTRDGVHFKPKEELGVTVYQSPHSGSFTITGNNSNFAQRFQGIYRCFASNKLGTAMSHEIRLMAEGAPKWPKETVKPVEVEEGESVVLPCNPPPSAEPLRIYWMNSKILHIKQDERVTMGQNGNLYFANVLTSDNHSDYICHAHFPGTRTIIQKEPIDLRVKATNSMIDRKPRLLFPTNSSSHLVALQGQPLVLECIAEGFPTPTIKWLRPSGPMPADRVTYQNHNKTLQLLKVGEEDDGEYRCLAENSLGSARHAYYVTVEAAPYWLHKPQSHLYGPGETARLDCQVQGRPQPEVTWRINGIPVEELAKDQKYRIQRGALILSNVQPSDTMVTQCEARNRHGLLLANAYIYVVQLPDKILTADNQTYMAVQGSTAYLLCKAFGAPVPSVQWLDEDGTTVLQDERFFPYANGTLGIRDLQANDTGRYFCLAANDQNNVTIMANLKVKDATQITQGPRSTIEKKGSRVTFTCQASFDPSLQPSITWRGDGRDLQELGDSDKYFIEDGRLVIHSLDYSDQGNYSCVASTELDVVESRAQLLVVGSPGPVPRLVLSDLHLLTQSQVRVSWSPAEDHNAPIEKYDIEFEDKEMAPEKWYSLGKVPGNQTSTTLKLSPYVHYTFRVTAINKYGPGEPSPVSETVVTPEAAPEKNPVDVKGEGNETTNMVITWKPLRWMDWNAPQVQYRVQWRPQGTRGPWQEQIVSDPFLVVSNTSTFVPYEIKVQAVNSQGKGPEPQVTIGYSGEDYPQAIPELEGIEILNSSAVLVKWRPVDLAQVKGHLRGYNVTYWREGSQRKHSKRHIHKDHVVVPANTTSVILSGLRPYSSYHLEVQAFNGRGSGPASEFTFSTPEGVPGHPEALHLECQSNTSLLLRWQPPLSHNGVLTGYVLSYHPLDEGGKGQLSFNLRDPELRTHNLTDLSPHLRYRFQLQATTKEGPGEAIVREGGTMALSGISDFGNISATAGENYSVVSWVPKEGQCNFRFHILFKALGEEKGGASLSPQYVSYNQSSYTQWDLQPDTDYEIHLFKERMFRHQMAVKTNGTGRVRLPPAGFATE | binds | binds | binds | –
4 | G121S mutant L1Fc chimera (Fc fusion, UniProt P32004 20-1120, looked up, also called G121S-L1Fc; not shown: immunoglobulin Fc, human) IQIPEEYEGHHVMEPPVITEQSPRRLVVFPTDDISLKCEASGKPEVQFRWTRDGVHFKPKEELGVTVYQSPHSGSFTITGNNSNFAQRFQGIYRCFASNKLSTAMSHEIRLMAEGAPKWPKETVKPVEVEEGESVVLPCNPPPSAEPLRIYWMNSKILHIKQDERVTMGQNGNLYFANVLTSDNHSDYICHAHFPGTRTIIQKEPIDLRVKATNSMIDRKPRLLFPTNSSSHLVALQGQPLVLECIAEGFPTPTIKWLRPSGPMPADRVTYQNHNKTLQLLKVGEEDDGEYRCLAENSLGSARHAYYVTVEAAPYWLHKPQSHLYGPGETARLDCQVQGRPQPEVTWRINGIPVEELAKDQKYRIQRGALILSNVQPSDTMVTQCEARNRHGLLLANAYIYVVQLPAKILTADNQTYMAVQGSTAYLLCKAFGAPVPSVQWLDEDGTTVLQDERFFPYANGTLGIRDLQANDTGRYFCLAANDQNNVTIMANLKVKDATQITQGPRSTIEKKGSRVTFTCQASFDPSLQPSITWRGDGRDLQELGDSDKYFIEDGRLVIHSLDYSDQGNYSCVASTELDVVESRAQLLVVGSPGPVPRLVLSDLHLLTQSQVRVSWSPAEDHNAPIEKYDIEFEDKEMAPEKWYSLGKVPGNQTSTTLKLSPYVHYTFRVTAINKYGPGEPSPVSETVVTPEAAPEKNPVDVKGEGNETTNMVITWKPLRWMDWNAPQVQYRVQWRPQGTRGPWQEQIVSDPFLVVSNTSTFVPYEIKVQAVNSQGKGPEPQVTIGYSGEDYPQAIPELEGIEILNSSAVLVKWRPVDLAQVKGHLRGYNVTYWREGSQRKHSKRHIHKDHVVVPANTTSVILSGLRPYSSYHLEVQAFNGRGSGPASEFTFSTPEGVPGHPEALHLECQSNTSLLLRWQPPLSHNGVLTGYVLSYHPLDEGGKGQLSFNLRDPELRTHNLTDLSPHLRYRFQLQATTKEGPGEAIVREGGTMALSGISDFGNISATAGENYSVVSWVPKEGQCNFRFHILFKALGEEKGGASLSPQYVSYNQSSYTQWDLQPDTDYEIHLFKERMFRHQMAVKTNGTGRVRLPPAGFATE | – | – | – | binding [6]: binds; binding [7]: binds
5 | H210Q mutant L1Fc chimera (Fc fusion, UniProt P32004 20-1120, looked up, not shown: immunoglobulin Fc, human) IQIPEEYEGHHVMEPPVITEQSPRRLVVFPTDDISLKCEASGKPEVQFRWTRDGVHFKPKEELGVTVYQSPHSGSFTITGNNSNFAQRFQGIYRCFASNKLGTAMSHEIRLMAEGAPKWPKETVKPVEVEEGESVVLPCNPPPSAEPLRIYWMNSKILHIKQDERVTMGQNGNLYFANVLTSDNHSDYICQAHFPGTRTIIQKEPIDLRVKATNSMIDRKPRLLFPTNSSSHLVALQGQPLVLECIAEGFPTPTIKWLRPSGPMPADRVTYQNHNKTLQLLKVGEEDDGEYRCLAENSLGSARHAYYVTVEAAPYWLHKPQSHLYGPGETARLDCQVQGRPQPEVTWRINGIPVEELAKDQKYRIQRGALILSNVQPSDTMVTQCEARNRHGLLLANAYIYVVQLPAKILTADNQTYMAVQGSTAYLLCKAFGAPVPSVQWLDEDGTTVLQDERFFPYANGTLGIRDLQANDTGRYFCLAANDQNNVTIMANLKVKDATQITQGPRSTIEKKGSRVTFTCQASFDPSLQPSITWRGDGRDLQELGDSDKYFIEDGRLVIHSLDYSDQGNYSCVASTELDVVESRAQLLVVGSPGPVPRLVLSDLHLLTQSQVRVSWSPAEDHNAPIEKYDIEFEDKEMAPEKWYSLGKVPGNQTSTTLKLSPYVHYTFRVTAINKYGPGEPSPVSETVVTPEAAPEKNPVDVKGEGNETTNMVITWKPLRWMDWNAPQVQYRVQWRPQGTRGPWQEQIVSDPFLVVSNTSTFVPYEIKVQAVNSQGKGPEPQVTIGYSGEDYPQAIPELEGIEILNSSAVLVKWRPVDLAQVKGHLRGYNVTYWREGSQRKHSKRHIHKDHVVVPANTTSVILSGLRPYSSYHLEVQAFNGRGSGPASEFTFSTPEGVPGHPEALHLECQSNTSLLLRWQPPLSHNGVLTGYVLSYHPLDEGGKGQLSFNLRDPELRTHNLTDLSPHLRYRFQLQATTKEGPGEAIVREGGTMALSGISDFGNISATAGENYSVVSWVPKEGQCNFRFHILFKALGEEKGGASLSPQYVSYNQSSYTQWDLQPDTDYEIHLFKERMFRHQMAVKTNGTGRVRLPPAGFATE | binds | binds | binds | –
